# Some of the results follow.
# The chains behind the UniProt entries cited, without tags or fusion partners.
# UniProt Q0JBA9, entry or part of it: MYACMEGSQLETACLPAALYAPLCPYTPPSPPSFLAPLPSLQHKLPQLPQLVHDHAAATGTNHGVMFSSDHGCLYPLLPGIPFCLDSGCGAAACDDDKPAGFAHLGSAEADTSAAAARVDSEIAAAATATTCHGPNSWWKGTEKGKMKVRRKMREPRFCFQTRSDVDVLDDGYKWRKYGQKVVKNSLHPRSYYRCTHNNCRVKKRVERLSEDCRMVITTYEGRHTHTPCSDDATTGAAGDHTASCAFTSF
# Target: OsWRKY34 (Oryza sativa, UniProt Q0JBA9 1-250)
# Experiment: protein-binding microarray (RPBM); PBS, 2% BSA, 51.3 ng/ul salmon testes DNA, 50 uM zinc acetate, 200 nM TF, 25 C, 1 h; high values mean tight binding
# Conditions: protein: recombinant; tags: N-terminal polyhistidine and DsRed monomer fusion (pET32a); label: CyDye5-dUTP incorporated in the synthesized complementary strand; 3' TTTTT single-stranded linker to array surface; dsDNA, one strand shown
# Method in brief: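 A custom Agilent array was converted to double-stranded form by primer extension with Cy5-dUTP and blocked with 2% BSA. Protein at 200 nM in PBS with 2% BSA, salmon testes DNA and 50 µM zinc acetate was applied for 1 h at 25 °C, followed by washing. The proteins were polyhistidine–DsRed N-terminal fusions of transcription factors, expressed in E. coli BL21-CodonPlus and Ni–NTA-purified. The binding signal is per-feature fluorescence intensity (arbitrary units) from an Axon 4000B scanner.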
row,Sequence,binding signal
1,CGCGCTCGTCTGGGCCTGCCTCTGGGTCGCGGCGCCGCCTCGGAGTCACCTAGTGCAG,8140 fluorescence intensity (a.u.)
2,ATATCCCTTCTCTTCCCTCATCTCTCCACCTCTTCCATCTCGGAGTCACCTAGTGCAG,8890 fluorescence intensity (a.u.)
3,GATGACTTTTTAACTTTATTGTTGCATCATCGCTCTGCACCGGAGTCACCTAGTGCAG,9480 fluorescence intensity (a.u.)
4,TCTCTTCTTTTTCTCATTCCATATCATCAAATGCTTCTACCGGAGTCACCTAGTGCAG,10600 fluorescence intensity (a.u.)
5,ATTATGTGCTAATAGCTTTCTAATTTTACGTGTTCAACTTCGGAGTCACCTAGTGCAG,8360 fluorescence intensity (a.u.)
6,CCATCAATTCTCCGATCCCATCTCGCTCTCGCCATCTGCTCGGAGTCACCTAGTGCAG,9870 fluorescence intensity (a.u.)
7,CTGTCGCCATCTCGCGCCACTTCCGCTCCAGTTCCCGCCACGGAGTCACCTAGTGCAG,10500 fluorescence intensity (a.u.)
8,ACTATTTACCATTCTGCCACTAGCCGAGGTCTCCTCCTCCCGGAGTCACCTAGTGCAG,8230 fluorescence intensity (a.u.)
9,TGCTCCGTCCGCCGCCGCTCTGCCCCGCCTGTCACCCACTCGGAGTCACCTAGTGCAG,10600 fluorescence intensity (a.u.)
10,CTGTTTAATTAGTGTCAGCTCCCACGTCTGTTCCGTGCTGCGGAGTCACCTAGTGCAG,9270 fluorescence intensity (a.u.)
11,GGTTCGTCAACAAGGTCAGGGGCGGCGGCCGGGGCGGAGCCGGAGTCACCTAGTGCAG,9930 fluorescence intensity (a.u.)
12,TGATAATCCGTGTCCAACGTTTGATCGTCCGTCTTATTTACGGAGTCACCTAGTGCAG,8920 fluorescence intensity (a.u.)
13,GTATTATTGCAGTTGCCTGTGCCTTCATTTCCACCCACTTCGGAGTCACCTAGTGCAG,12400 fluorescence intensity (a.u.)
14,TCCGGCAGCCACCAAGTCCATCGATCGATATCTCACCACACGGAGTCACCTAGTGCAG,10200 fluorescence intensity (a.u.)
15,TCAAGGGAGGAGGGGTTGGCGGTGATGGAGGAGACGACGACGGAGTCACCTAGTGCAG,11700 fluorescence intensity (a.u.)
16,ATTGTTTTTTCTTTTATCTTTCTTCATGCGTTAATTATTACGGAGTCACCTAGTGCAG,8610 fluorescence intensity (a.u.)
17,CCTTTCTTAGCCACACACCCAGATTCCCCACACCTCTCCCCGGAGTCACCTAGTGCAG,10300 fluorescence intensity (a.u.)
18,GGATATCTTCGAAGACGCCCAGTTGCACACCACCTCCAGACGGAGTCACCTAGTGCAG,8170 fluorescence intensity (a.u.)
19,GCTCGAGTCCAAGTGTCCAACCCCATCGCATCGCCATCTCCGGAGTCACCTAGTGCAG,8540 fluorescence intensity (a.u.)
20,GCCAAATTCCAGCCCTGCAGCAAGCTCACGCCAACTTGCCCGGAGTCACCTAGTGCAG,10900 fluorescence intensity (a.u.)
21,TTCTACGTATCTTTTCAATCTTCTCTTTTCAACTCAACCACGGAGTCACCTAGTGCAG,10100 fluorescence intensity (a.u.)

row,Sequence,binding signal
1,TTGTTTCTATGCTCATAAGAGGCCAAAGCTTTCTTTCTTCCGGAGTCACCTAGTGCAG,8910 fluorescence intensity (a.u.)
2,ATCGAATCGATCGACTCTCTCGTCAGTTGTCACGTCACCGCGGAGTCACCTAGTGCAG,8820 fluorescence intensity (a.u.)
3,CTATACCAACTCTATTATTTTTGGTTACTCTACTTTAATACGGAGTCACCTAGTGCAG,9060 fluorescence intensity (a.u.)
4,TTCTTAGTTCTTCTCTGTTCTTTGATCTTGCCAAAGTTCTCGGAGTCACCTAGTGCAG,8820 fluorescence intensity (a.u.)
5,AATTTGTTCAGTTGCCACGGATCCATCATTAATCTGGCAACGGAGTCACCTAGTGCAG,8860 fluorescence intensity (a.u.)
6,TTTATATTGGTAACATATTATTTGGCCCATATGGAAAACACGGAGTCACCTAGTGCAG,8530 fluorescence intensity (a.u.)
7,GACACATGAACTTTCAATTTTTCTATCACATCGTTCTAATCGGAGTCACCTAGTGCAG,8150 fluorescence intensity (a.u.)
8,TGGTGTGTATATATATCTGTTGCGTAATCGTAAAAAAACACGGAGTCACCTAGTGCAG,8620 fluorescence intensity (a.u.)
9,GTGGTTTCGTTGGTGTTGTGCAGTTGCTGTGGGGATAATGCGGAGTCACCTAGTGCAG,11600 fluorescence intensity (a.u.)
10,CATAATCAAGCCTCGTAGGGCTCCATACTGCACCGTTTTTCGGAGTCACCTAGTGCAG,8500 fluorescence intensity (a.u.)
11,TATGTTGTCTTTGTTTGCTCCTTCCTTGCGACCTGGTTGACGGAGTCACCTAGTGCAG,10500 fluorescence intensity (a.u.)
12,TTCCTTCTTTCCTGCTGCCTGCCTAGTCTAGTCTACCACCCGGAGTCACCTAGTGCAG,8280 fluorescence intensity (a.u.)
13,CCGCCCTCACGGCCTCACCGCCTCATCTCCGCCGTCGATTCGGAGTCACCTAGTGCAG,9290 fluorescence intensity (a.u.)
14,GTCAACTGTCAGCCTGCGTTACCAATAGCACATAATATATCGGAGTCACCTAGTGCAG,8110 fluorescence intensity (a.u.)
15,CTCATCAAACTCACCACCGTCGCTTCCATCTCTCTCTGTCCGGAGTCACCTAGTGCAG,11600 fluorescence intensity (a.u.)
16,ACTAATTTCATTGGAATTTTCTTTTAGGGATTTTTCCTTCCGGAGTCACCTAGTGCAG,8390 fluorescence intensity (a.u.)
17,AATTGCTGTTGACCTGTTGTTGTGCTCCAACATCCAAACACGGAGTCACCTAGTGCAG,8290 fluorescence intensity (a.u.)
18,TCGTGGTGGTGGTGGTGGTGCAGCTTTTGCTTGCGTGCGACGGAGTCACCTAGTGCAG,15300 fluorescence intensity (a.u.)
19,TTTCTTCTCTTTTCTCCTGTTCACTTTTCTTCTTCTCCTCCGGAGTCACCTAGTGCAG,8250 fluorescence intensity (a.u.)
20,TTGCAATTTGCATCACCCATGGTGCGCTTCCACTTATATCCGGAGTCACCTAGTGCAG,8680 fluorescence intensity (a.u.)
21,GGTGGTTCTTGCTTCACACAATCTGGCGCGCTTCAGAACACGGAGTCACCTAGTGCAG,13300 fluorescence intensity (a.u.)

row,Sequence,binding signal
1,TCTCTCATCTCATCTCTTGGTAGTTGCCAGTTGGGACTTGCGGAGTCACCTAGTGCAG,12200 fluorescence intensity (a.u.)
2,TTAGTTCAGGCCGTGTTTAGTTCGTTGCCTAATTTTTTTTCGGAGTCACCTAGTGCAG,14200 fluorescence intensity (a.u.)
3,TAATTGTCTTCGTCAGGATCTTCTGCTAATTGTTTGATTTCGGAGTCACCTAGTGCAG,8680 fluorescence intensity (a.u.)
4,GTACACCGGAAATATTTCTTTTTTGCGTTCGATTCTTCTGCGGAGTCACCTAGTGCAG,12100 fluorescence intensity (a.u.)
5,TTGAGTCATATTTTTGTCACGGAACTACTTTTACGTCACACGGAGTCACCTAGTGCAG,8140 fluorescence intensity (a.u.)
6,GCCGCCCGTTCTCCGCCTCCGCCTCCGCCGGGGATAACGGCGGAGTCACCTAGTGCAG,8220 fluorescence intensity (a.u.)
7,CTTTTTCTTCAAACTTTCAACTTTTCTGTCACATCGTTTCCGGAGTCACCTAGTGCAG,9250 fluorescence intensity (a.u.)
8,AATTCTACCTTTCTTTTGTCTAAGTACAATTATCTTTTTCCGGAGTCACCTAGTGCAG,11000 fluorescence intensity (a.u.)
9,TTATCTGGCATGAACAGGAAGGGTTCACTGTTGTATTTTACGGAGTCACCTAGTGCAG,8850 fluorescence intensity (a.u.)
10,ACAACAGGAATCCACCGTGACTTGCTTCACCACCACCCTGCGGAGTCACCTAGTGCAG,8780 fluorescence intensity (a.u.)
11,AGTACATAACATACCTTCATCTTTCGACCAGCTCATCTTTCGGAGTCACCTAGTGCAG,10600 fluorescence intensity (a.u.)
12,CTCATCCCGTTTCACCATTTTGTTTCACCATTACAGTAGGCGGAGTCACCTAGTGCAG,11900 fluorescence intensity (a.u.)
13,GATTTGGAGGAACTAGAGCTCGGCACACTGATTGGCTACCCGGAGTCACCTAGTGCAG,8410 fluorescence intensity (a.u.)
14,GAGTCGTTCGCGCCGTTCGGCCAGGTCATCGCCGCCACACCGGAGTCACCTAGTGCAG,8220 fluorescence intensity (a.u.)
15,CCTGGCGTATCCTTCCTCGATGCTCCAACAACCACCGCACCGGAGTCACCTAGTGCAG,8470 fluorescence intensity (a.u.)
16,TTCCCGCTCGCCGTCGTTCCAGTCCAAGCTCCCCGCCACCCGGAGTCACCTAGTGCAG,10300 fluorescence intensity (a.u.)
17,GTGAGACTTGTGGCAAGTATTATTCTTCTTGTGTCTTCATCGGAGTCACCTAGTGCAG,8280 fluorescence intensity (a.u.)
18,ATCACAACATCGTAATTCAATTAATTGGTGGTCGTATTATCGGAGTCACCTAGTGCAG,8160 fluorescence intensity (a.u.)
19,TGCGTTTCTGAACTTTGACTGATCAAGGTTCATTCACTTTCGGAGTCACCTAGTGCAG,8790 fluorescence intensity (a.u.)
20,TTGCCGCTGGGCTGGTTGGTGTATTGTGTGGTGAGCATTGCGGAGTCACCTAGTGCAG,8480 fluorescence intensity (a.u.)
21,TCGAGGATAACTTTTATTTTCGCTAAATTTTTTTTGTTTTCGGAGTCACCTAGTGCAG,8220 fluorescence intensity (a.u.)

# 4 consecutive entries from above, for reference:
row,Sequence,binding signal
16,TTCCCGCTCGCCGTCGTTCCAGTCCAAGCTCCCCGCCACCCGGAGTCACCTAGTGCAG,10300 fluorescence intensity (a.u.)
17,GTGAGACTTGTGGCAAGTATTATTCTTCTTGTGTCTTCATCGGAGTCACCTAGTGCAG,8280 fluorescence intensity (a.u.)
18,ATCACAACATCGTAATTCAATTAATTGGTGGTCGTATTATCGGAGTCACCTAGTGCAG,8160 fluorescence intensity (a.u.)
19,TGCGTTTCTGAACTTTGACTGATCAAGGTTCATTCACTTTCGGAGTCACCTAGTGCAG,8790 fluorescence intensity (a.u.)

# Later entries

row,Sequence,binding signal
1,ACTGGATCTTCACTTGCACAGCTGCATTATCTCCTCTCTTCGGAGTCACCTAGTGCAG,9860 fluorescence intensity (a.u.)
2,TCGCGCCATACCCTTCTCCTTTGCCGTTCTGATAGCCACACGGAGTCACCTAGTGCAG,8060 fluorescence intensity (a.u.)
3,CACCCACAGCGCCATCCACACGACATCCTTTATCTTATCCCGGAGTCACCTAGTGCAG,12400 fluorescence intensity (a.u.)
4,TTCTCCCATTTTTAGGTGCGGTCCCATTTTTAGGCATTTTCGGAGTCACCTAGTGCAG,14800 fluorescence intensity (a.u.)
5,ATTCCTCATATCCGTTTCCTGCGAATAGAAGCGCCTTCATCGGAGTCACCTAGTGCAG,8710 fluorescence intensity (a.u.)
6,TTTGTCTTGTACAACTAGTTATACCTTTTACTATTTTCATCGGAGTCACCTAGTGCAG,8740 fluorescence intensity (a.u.)
7,CCGTATTTTAATGTATATGACACCGTTGACTTTTTGACCACGGAGTCACCTAGTGCAG,40800 fluorescence intensity (a.u.)
8,CCGGCACCCCGCGCGCCCGCCCGTCGCCCGTCGCGCCATGCGGAGTCACCTAGTGCAG,9360 fluorescence intensity (a.u.)
9,TCCTGGAGGTTTGGGTTGTGATGGGAAGAAAGGGAACTGACGGAGTCACCTAGTGCAG,8550 fluorescence intensity (a.u.)
10,CTGGCGCGATTTTCTTTTGTTCGTTCCTTTTATTTTCGCACGGAGTCACCTAGTGCAG,10100 fluorescence intensity (a.u.)
11,AGACATTTTTCTTTCTCGTGGATATTTACGCCTTTCTTGACGGAGTCACCTAGTGCAG,8790 fluorescence intensity (a.u.)
12,ACCATGCCACCGGACCTCCTTGCCCTTAGCTGCTTCCTCGCGGAGTCACCTAGTGCAG,8890 fluorescence intensity (a.u.)
13,TCCGCGGCTATCTCCCCGTACCGCTGCTCCACCTGCGCCGCGGAGTCACCTAGTGCAG,8960 fluorescence intensity (a.u.)
14,CTGGATCTCCTCTCTCTCTCTCTCTCTCTGTCCTTCTTCTCGGAGTCACCTAGTGCAG,10800 fluorescence intensity (a.u.)
15,ACCTCCACCACCCGCCGCCGCCGCCGCCGCCGCCGCCATGCGGAGTCACCTAGTGCAG,8120 fluorescence intensity (a.u.)
16,CGCTCGCAATCGCTGCTCCGTTCGCCGCCTCACATCCATGCGGAGTCACCTAGTGCAG,9230 fluorescence intensity (a.u.)
17,GGTCCATGGTAATGGTGTAGTCGTGGTGGTTTTGTTTCTCCGGAGTCACCTAGTGCAG,8460 fluorescence intensity (a.u.)
18,AGTCTAAGGCAAAAGACAACTATATTCCGCGCTCTACCTTCGGAGTCACCTAGTGCAG,8100 fluorescence intensity (a.u.)
19,TTAGGGTGAAATTTATTGTGGGAATTCATTTGGATATTTTCGGAGTCACCTAGTGCAG,8580 fluorescence intensity (a.u.)
20,GCCCATGTATAGTTCATTATTTTAGGCTTTGAACTTTATACGGAGTCACCTAGTGCAG,10600 fluorescence intensity (a.u.)
21,TTCACACCGTCGTATTTGCCACTTTACTGACGCTCGAAGCCGGAGTCACCTAGTGCAG,8060 fluorescence intensity (a.u.)

# Exported tab-delimited: entries from further up.
row	Sequence	binding signal
2	TCGCGCCATACCCTTCTCCTTTGCCGTTCTGATAGCCACACGGAGTCACCTAGTGCAG	8060 fluorescence intensity (a.u.)
3	CACCCACAGCGCCATCCACACGACATCCTTTATCTTATCCCGGAGTCACCTAGTGCAG	12400 fluorescence intensity (a.u.)

# Source: PMC7819943, “Rice protein-binding microarrays: a tool to detect cis-acting elements near promoter regions in rice”
